# Assay results from PubChem BioAssay AID1347072 (National Center for Advancing Translational Sciences (NCATS), 2019).
# Sequences of proteins named here, by UniProt entry; tags and fusion partners are left off. A change or cut given only in a name is not applied to a line headed by its entry.
# UniProt P51570: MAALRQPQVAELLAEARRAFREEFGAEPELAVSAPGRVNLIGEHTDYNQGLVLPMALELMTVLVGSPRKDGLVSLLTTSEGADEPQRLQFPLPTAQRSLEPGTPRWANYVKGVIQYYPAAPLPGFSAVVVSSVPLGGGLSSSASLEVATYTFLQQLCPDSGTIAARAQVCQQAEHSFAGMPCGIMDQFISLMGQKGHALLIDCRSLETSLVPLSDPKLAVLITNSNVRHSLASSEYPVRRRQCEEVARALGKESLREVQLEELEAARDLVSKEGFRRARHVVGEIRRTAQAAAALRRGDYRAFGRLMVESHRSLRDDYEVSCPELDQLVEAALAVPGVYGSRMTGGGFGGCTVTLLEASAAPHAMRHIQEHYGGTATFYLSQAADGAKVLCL
# Out of some 44,000 compounds screened, fewer than 10 were called active. The inconclusive results got no clear call from the source; some entries with a clear call stand among them for comparison. Calls follow the shape of the dose curve; as a rule, active = well fitted curve in the direction sought with a large enough effect; inconclusive = small, poorly fitted or top-dose-only effect, or another doubt; inactive = no such curve, though single readings can be large or run the other way. Where the call is inconclusive, the potency comes from a doubtful curve fit.
# Target: Galactokinase (Homo sapiens) (UniProt P51570)
# Assay: qHTS Assay for Inhibitors of Human Galactokinase (GALK): NCGC Sytravon Library Screen;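 as to activity, negative = inhibition: plate controls were full GALK reaction for no effect and reaction lacking GALK for full effect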
# Conditions: recombinant GALK, Kinase-Glo ATP luminescence, 1 h; series mostly up to 57.5 µM; activity, negative = inhibition: at the top concentration
# Summary of the method: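 Compounds were pinned into ATP buffer, then GALK-galactose mix was added (final 5 nM enzyme, 35 uM ATP, 100 uM galactose, pH 8.0). After 1 h at room temperature, Kinase-Glo Plus was added and luminescence read.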
SMILES,Potency,"activity, negative = inhibition"
CC(=O)Nc1ccc(S(=O)(=O)NCc2ccc3c(c2)CCN3C(C)=O)cc1,"inconclusive: 44.7 µM [inhibitor, partial curve, poor fit]",
Cc1nn(C(=O)COc2ccc(Cl)cc2)c(C)c1Sc1ccccc1,"inconclusive: 1.78 µM [inhibitor, full curve, poor fit]",
N#Cc1ccc(OC(=O)c2cc(-c3ccc(Cl)cc3)on2)cc1,"inconclusive: 1.12 µM [inhibitor, full curve, poor fit]",
CCOC(=O)c1c(C)[nH]c(C)c1S(=O)(=O)N(C)CC(=O)NCc1cccc(Br)c1,,inactive: -2.69%
CN(C(=O)CSc1nc2ccccc2n1CC(=O)N(C)C1CCCCC1)c1ccccc1,"inconclusive: 0.282 µM [inhibitor, full curve, poor fit]",
CCc1ccc(NC(=O)CSc2ccc(-c3cccs3)nn2)cc1,"inconclusive: 6.31 µM [inhibitor, partial curve, poor fit]",
Cc1ccc(NC(=O)CC2Oc3ccc(C)cc3NC2=O)c(C)c1 (stereo not drawn),,inactive: 1.39%
COc1ccc(-c2nc3n(n2)C(c2ccccc2F)C(C(=O)Nc2cccnc2)=C(C)N3)cc1OC (stereo not drawn),"inconclusive: 0.126 µM [inhibitor, full curve, poor fit]",
Cc1cc(NS(=O)(=O)c2ccc3nc(-c4ccccc4)[nH]c3c2)ccc1Br,"inconclusive: 17.8 µM [inhibitor, partial curve, poor fit]",
CCc1ccc(OCC(=O)Nc2ccc3c(c2)c2ccccc2n3CC)cc1,"inconclusive: 39.8 µM [inhibitor, single point]",
O=C(Cc1ccccc1)Nc1sc2c(c1C(=O)Nc1ccccc1Cl)CCCCC2,,inactive: -3.55%
O=C(Nc1cc(-c2ccccc2)sc1C(=O)O)c1cccc(F)c1,"inconclusive: 31.6 µM [inhibitor, partial curve, poor fit]",
COc1ccc(C2c3[nH]c4ccccc4c3CCN2C(=O)CCC2CCCC2)cc1 (stereo not drawn),"inconclusive: 6.31 µM [inhibitor, partial curve, poor fit]",
O=C1c2ccccc2-c2onc3c(N4CCN(C5CCCCC5)CC4)cc(NCCO)c1c23,,inactive: -0.275%
CCOc1ccc(CCNC(=O)C2CCCN(S(=O)(=O)N(C)c3ccc(F)cc3)C2)cc1 (stereo not drawn),"inconclusive: 1.26 µM [inhibitor, full curve, poor fit]",
OCc1cnc(SCc2ccccc2F)n1Cc1ccc(F)cc1,,inactive: -2.33%
CNC(=O)CN1C(=O)COc2ccc(S(=O)(=O)N3CCC(C)CC3)cc21,,inactive: -4.26%
COc1ccc(CC(=O)Nc2nc3c(s2)CCCC3)cc1,"inconclusive: 22.4 µM [inhibitor, partial curve, poor fit]",
COc1cccc(C(=O)Nc2c(C(=O)Nc3ccc(F)cc3)oc3ccccc23)c1OC,"inconclusive: 39.8 µM [inhibitor, partial curve, poor fit]",
CC(C)CC(=O)NCC(c1ccc2c(c1)OCO2)N1CCN(c2ccccc2)CC1 (stereo not drawn),"inconclusive: 4.47 µM [inhibitor, partial curve, poor fit]",
Cc1ccccc1CSc1ncc(Cl)c(C(=O)Nc2nc3ccc(F)cc3s2)n1,"inconclusive: 39.8 µM [inhibitor, partial curve, poor fit]",
COc1ccc(OCCn2c(NC(=O)c3ccc(OC)cc3)nc3ccccc32)cc1,,inactive: 0%
COc1ccc(CCNC(=O)Cc2c(C)c3c(cc(C)c4c(C)coc43)oc2=O)cc1,"inconclusive: 31.6 µM [inhibitor, partial curve, poor fit]",

# Some of the entries so far, with tabs.
SMILES	Potency	activity, negative = inhibition
O=C(Cc1ccccc1)Nc1sc2c(c1C(=O)Nc1ccccc1Cl)CCCCC2		inactive: -3.55%
Cc1ccccc1CSc1ncc(Cl)c(C(=O)Nc2nc3ccc(F)cc3s2)n1	inconclusive: 39.8 µM [inhibitor, partial curve, poor fit]	
